Several values for one entry are separate records, joined by “and”; a condition that tells them apart may be missing. Equal entries are not always repeated.

This note sets out measurements from patent publication US7598067B2, “PDEs and uses thereof” (priority 2000, dated 2009).

This data set deals with bloodstream form trypanosomes. Description: Cytotoxicity / cell proliferation of bloodstream form trypanosomes, acid phosphatase assay. It counts as cell-based, Trypanosoma brucei. The note with it: inhibition of cell proliferation, bloodstream forms in culture.
Turning to `OCCN(CCO)c1nc(N2CCCCC2)c2nc(N(CCO)CCO)nc(N3CCCCC3)c2n1` [Dipyridamole, dipyridamole], the “Hill slope of the dose-response curve” value was 1.38±021 and 1.37±0.21.

As to `CCOc1ccc(Cc2nccc3cc(OCC)c(OCC)cc23)cc1OCC` [Ethaverine], the “Hill slope of the dose-response curve” value was 5.19±1.52.

Turning to `CCCc1nn(C)c2c(=O)[nH]c(-c3cc(S(=O)(=O)N4CCN(C)CC4)ccc3OCC)nc12` [Sildenafil, sildenafil], the “Hill slope of the dose-response curve” value is given as 1.73±0.69.

Take `COc1cc2c(cc1OC)-c1c/c(=N\c3c(C)cc(C)cc3C)n(C)c(=O)n1CC2` [Trequinsin]: the “Hill slope of the dose-response curve” value is reported as 1.09±0.63.
